Our source for the binding values is patent US20090131308A1, “Splice Variants of ErbB Ligands, Compositions and Uses Thereof” (AGOS BIOTECH LTD., priority 2003, published 2009).

Sequences of proteins named here, by UniProt entry; tags and fusion partners are left off. A change or cut given only in a name is not applied to a line headed by its entry.
UniProt P35070: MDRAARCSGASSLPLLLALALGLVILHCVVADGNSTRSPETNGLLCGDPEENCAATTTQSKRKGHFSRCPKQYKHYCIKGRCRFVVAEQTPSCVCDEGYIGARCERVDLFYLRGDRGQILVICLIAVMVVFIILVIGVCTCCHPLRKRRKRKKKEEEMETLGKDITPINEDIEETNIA

No constants are given. Whether binding was seen depends on the method and setting.

For the experiment, the target named is Betacellulin (recombinant, immobilized) (human or bovine) (UniProt P35070). In words: BIAcore 3000, Betacellulin amine-coupled to CM-5 chip, peptide injected. (Surface plasmon resonance follows binding to a sensor surface in real time, without labels.)

Take NSDSECPLSHDGYCLHDGVCMYIEALDKYACK [Human EGF (1-32)]: the binding entry is “no binding”.
